Some results were stated once for a whole list of compounds, not compound by compound.
Test: Tryptophan-to-alanine GarA variants, antibacterial activity
Type: cell-based
Conditions: in combination with the other peptides of Garvicin KS
Description: The three tryptophan residues in GarA were replaced one by one with alanine (Table 9). Antibacterial activity was tested when used in combination with the other peptides of Garvicin KS.

Row | Sequence | reduced activity, times lower than the wildtype peptide (GarA)
1 | MGAIIKAGAKIVGKGVLGGGASALGWNVGEKIWK (Altered Sequence of GarA from Lactococcus garvieae with W23A Mutation) [GarA-23A] | 2-4 times
2 | MGAIIKAGAKIVGKGVLGGGASWLGWNVGEKIAK (Altered Sequence of GarA from Lactococcus garvieae with W33A Mutation) [GarA-33A] | 2-4 times

From patent US10781236B2, “Bacteriocin composition and method” (priority 2015, dated 2020)
